Results are given in words; binding and its absence hold for the method and conditions named. Some entries that bind do so weakly or less than the wild type.
How the values were obtained:
[1] = target: T1, P. aeruginosa outer membrane porin OprF (Pseudomonas aeruginosa (strain PAO1)) (UniProt P13794); assay: summary of the examples' results
T1 sequence: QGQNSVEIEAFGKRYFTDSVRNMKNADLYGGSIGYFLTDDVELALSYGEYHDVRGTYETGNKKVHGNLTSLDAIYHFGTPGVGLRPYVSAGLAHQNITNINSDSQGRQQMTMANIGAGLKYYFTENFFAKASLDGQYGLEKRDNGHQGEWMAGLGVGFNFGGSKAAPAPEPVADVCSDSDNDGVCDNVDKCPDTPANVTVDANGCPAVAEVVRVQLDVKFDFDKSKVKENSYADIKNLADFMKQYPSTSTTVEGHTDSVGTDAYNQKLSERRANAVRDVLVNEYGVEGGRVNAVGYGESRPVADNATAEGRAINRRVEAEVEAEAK

Amino acid sequences for entries named in this document (tags omitted). Residues count along the entry.
UniProt P01579, residues 24-166: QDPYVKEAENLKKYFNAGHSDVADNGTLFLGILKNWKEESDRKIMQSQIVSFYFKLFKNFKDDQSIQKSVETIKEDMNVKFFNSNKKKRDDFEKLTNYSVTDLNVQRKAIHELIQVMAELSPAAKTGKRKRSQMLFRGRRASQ

[2] = target: T1, P. aeruginosa outer membrane porin OprF (Pseudomonas aeruginosa (strain PAO1)); assay: binding assay with purified OprF
[3] = target: T1, P. aeruginosa outer membrane porin OprF (Pseudomonas aeruginosa (strain PAO1)); assay: figure legend (graphs, bar charts, immunoblots)

Measured: binding

recombinant human IFN-γ (rH IFN-γ) (from UniProt P01579 24-166) (ligand)
binds: all assays above

— US20080194611A1, “Modulation of Cell Barrier Dysfunction” (priority 2005, published 2008)
